Source: PubChem BioAssay AID624246 (National Center for Advancing Translational Sciences (NCATS), 2012)
Out of some 370,000 compounds screened, about 100 (0.027%) were called active. Inconclusive means that the source gave no clear call. Such entries were picked first, then a sample of the others. Calls come from the whole dose curve; as a rule, active = well fitted inhibition curve with a large enough effect in the polarisation, with a control signal flat; inconclusive = small, poorly fitted or top-dose-only effect, or effect the other way, or a change in a side signal; inactive = no such curve, though single readings can be large or run the other way; the % refers to the polarisation. Where the call is inconclusive, the potency comes from a doubtful curve fit. A note “side channel” means that the fit belongs to a control or component signal, not to the main read-out.

Sequences of proteins named here, by UniProt entry; tags and fusion partners are left off. A change or cut given only in a name is not applied to a line headed by its entry.
UniProt P11308: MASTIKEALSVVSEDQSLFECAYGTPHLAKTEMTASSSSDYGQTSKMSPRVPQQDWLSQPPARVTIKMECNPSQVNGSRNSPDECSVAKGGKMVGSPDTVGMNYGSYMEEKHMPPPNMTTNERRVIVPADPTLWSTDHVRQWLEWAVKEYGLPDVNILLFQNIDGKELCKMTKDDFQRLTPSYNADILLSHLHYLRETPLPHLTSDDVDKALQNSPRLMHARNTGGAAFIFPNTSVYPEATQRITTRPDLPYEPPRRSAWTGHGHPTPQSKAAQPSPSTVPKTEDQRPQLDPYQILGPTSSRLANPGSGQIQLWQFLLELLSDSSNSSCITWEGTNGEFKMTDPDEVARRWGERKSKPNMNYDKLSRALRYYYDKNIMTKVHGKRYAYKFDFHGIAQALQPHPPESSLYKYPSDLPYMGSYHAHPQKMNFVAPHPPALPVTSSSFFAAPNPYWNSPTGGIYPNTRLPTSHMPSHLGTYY

These molecules were tested against Transcriptional regulator ERG (Homo sapiens) (UniProt P11308) (assay: qHTS for Small Molecule Inhibitors of the ERG Ets/DNA interaction). Conditions: fluorescence polarization, His-ERG Ets domain / labelled DNA; FP activity, negative = inhibition: at 76.9 µM (top of the series).
Outline: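 His-tagged ERG Ets domain (1 uM in the protein solution; 300mM KCl, 50mM Tris-HCl, 1mM EDTA, 1mM DTT, pH 7.5) received compound, then a probe mix of 5 nM fluorescein-DNA and 100nM Texas-615-DNA. Fluorescence polarization was read for both dyes.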
Potency is the fitted concentration of half-maximal effect.
Throughout, for FP activity, negative = inhibition: % of control where 0% means no effect.

Question: With CCNc1ccc(C(=O)O)cc1N as the molecule, how does the Potency read?
Answer: inconclusive: 35.5 µM [inhibitor, single point]

Question: For Cc1cccc(C)c1OCC(=O)N(Cc1ccc(N(C)C)cc1)C1CCS(=O)(=O)C1 (stereo not given), which “FP activity, negative = inhibition” value is on record?
Answer: inactive: -0.559%

Question: How did the Potency turn out when O=C(COC(=O)c1cccc(-n2cnnn2)c1)c1ccccc1 was run?
Answer: inconclusive: 56.2 µM [inhibitor, single point]

Question: O=C(COC(=O)/C=C/c1cccc(C(F)(F)F)c1)NC1CCS(=O)(=O)C1 (stereo not given) was tested. Which Potency did it give?
Answer: inconclusive: 31.6 µM [inhibitor, single point]

Question: Which Potency does the source give for Nc1cc(Cl)cc2c1-c1ccc(Cl)cc1C2 here?
Answer: inconclusive: 2 µM [inhibitor, partial curve, poor fit]

Question: O=S(=O)(NCCNS(=O)(=O)c1ccc(F)cc1)c1ccc(F)cc1 was tested. Which Potency did it give?
Answer: inconclusive: 31.6 µM [inhibitor, partial curve, poor fit]

Question: With CCN1CCN(C(=S)Nc2cccc(C(F)(F)F)c2)CC1 as the molecule, how does the “FP activity, negative = inhibition” value read?
Answer: inactive: -4.72%

Question: How did the Potency turn out when O=C(COc1ccc([N+](=O)[O-])cc1)Nc1cccc(C(=O)Nc2ccccc2C(=O)O)c1 was run?
Answer: inconclusive: 50.1 µM [inhibitor, single point]

Question: CC1(C)C2CCC1(CS(=O)(=O)N1CCC(C(N)=O)CC1)C(=O)C2 (stereo not given) was tested. Which Potency did it give?
Answer: inconclusive: 3.16 µM [inhibitor, partial curve, poor fit]

Question: Which Potency does the source give for COc1ccc(-c2nn3c(=O)cc(CN4CCN(C(=O)/C=C/c5ccccc5)CC4)nc3s2)cc1 here?
Answer: inconclusive: 100 µM [inhibitor, single point]

Question: Which Potency does the source give for COC(=O)c1[nH]c2c(c1C)C(=O)CC(c1cccs1)C2 (stereo not given) here?
Answer: inconclusive: 22.4 µM [quencher, side channel, partial curve, poor fit]

Question: Which Potency does the source give for CCc1nc(N2CCN(C(=O)c3ccccc3)CC2)c(C#N)c2c1COC(C)(C)C2 here?
Answer: inconclusive: 35.5 µM [quencher, side channel, single point]

Question: With Cc1cc(C)c(C)c(S(=O)(=O)NCC(=O)Nc2sc3c(c2C(N)=O)CCCC3)c1C as the molecule, how does the Potency read?
Answer: inconclusive: 44.7 µM [quencher, side channel, single point]

Question: With COC(=O)c1ccc(C2=NOC(C)(c3sc(-c4ccccc4)nc3C)C2)cc1 (stereo not given) as the molecule, how does the Potency read?
Answer: inconclusive: 1 µM [inhibitor, partial curve, poor fit]

Question: With Nc1c2ccccc2nc2ccccc12 as the molecule, how does the Potency read?
Answer: inconclusive: 25.1 µM [inhibitor, partial curve, poor fit]

Question: For Cc1cc(C)c(OCCOCCN2CCN(C)CC2)c(Cl)c1, which “FP activity, negative = inhibition” value is on record?
Answer: inactive: 1.46%

Question: With Cc1cc2cc(CNC(=O)c3cccc([N+](=O)[O-])c3)ccc2[nH]1 as the molecule, how does the Potency read?
Answer: inconclusive: 39.8 µM [inhibitor, single point]

Question: For N#CCC(=O)N/N=C/c1ccc(OCc2ccccc2)cc1, which “FP activity, negative = inhibition” value is on record?
Answer: inactive: 6.47%

Question: With CC1(c2ccc(OC(F)F)cc2)NC(=O)N(CC(=O)Nc2cccc(F)c2)C1=O (stereo not given) as the molecule, how does the “FP activity, negative = inhibition” value read?
Answer: inactive: -4.62%

Question: How did the Potency turn out when CCCCn1c(N)c(N(CCC(C)C)C(=O)c2cc(Cl)nc3ccccc23)c(=O)[nH]c1=O was run?
Answer: inconclusive: 35.5 µM [inhibitor, single point]

Question: How did the Potency turn out when CCCCCNS(=O)(=O)c1cc2c3c(c1)CCC(=O)N3CCC2 was run?
Answer: inconclusive: 50.1 µM [inhibitor, single point]

Question: How did the “FP activity, negative = inhibition” value turn out when CC(=O)c1c(N2CCCC2)[nH]c(-c2ccccc2)nc1=S was run?
Answer: inactive: -3.05%

Question: With Cc1noc(C)c1S(=O)(=O)N(CC(=O)NCc1ccc(F)cc1)c1ccc(C(C)C)cc1 as the molecule, how does the Potency read?
Answer: inconclusive: 35.5 µM [inhibitor, single point]

Question: With CCC1CCC/C1=N\NC(=O)c1ccoc1C (stereo not given) as the molecule, how does the “FP activity, negative = inhibition” value read?
Answer: inactive: -10.6%

Question: How did the “FP activity, negative = inhibition” value turn out when c1ccc(CNc2ccc3ccccc3n2)nc1 was run?
Answer: inactive: 0.542%

Question: With O=c1cc(CSc2ccc(Cl)cc2)nc(-c2ccncc2)[nH]1 as the molecule, how does the “FP activity, negative = inhibition” value read?
Answer: inactive: -6.4%

Question: How did the Potency turn out when CC(C)CN1C2CCCC1CC(NC(=S)NCc1ccco1)C2 (stereo not given) was run?
Answer: inconclusive: 10 µM [inhibitor, partial curve, poor fit]

Question: O=C(N/N=C/c1ccc([N+](=O)[O-])cc1)c1cc2ccccc2o1 was tested. Which Potency did it give?
Answer: inconclusive: 0.891 µM [inhibitor, full curve, poor fit]

Question: How did the Potency turn out when CCCN1CCN(CCCNC(=O)c2cc3c(=O)n(CC)c4ccccc4c3s2)CC1 was run?
Answer: inconclusive: 56.2 µM [quencher, side channel, partial curve, poor fit]

Question: For COc1ccc(CCn2c(C)cc(C(=O)COC(=O)c3cnc(C)cn3)c2C)cc1, which Potency is on record?
Answer: inconclusive: 7.08 µM [inhibitor, single point]

Question: With CCCOc1ccc(C2c3c(-c4ccccc4O)n[nH]c3C(=O)N2CCc2ccccc2)cc1OCC (stereo not given) as the molecule, how does the Potency read?
Answer: inconclusive: 100 µM [inhibitor, single point]

Question: With COc1ccc(CN2CCC(C(=O)N3CCCC(C)C3)CC2)cc1OC (stereo not given) as the molecule, how does the Potency read?
Answer: inconclusive: 12.6 µM [inhibitor, partial curve, poor fit]

Question: For COC(=O)c1cn[nH]c1NC(=S)Nc1ccc(Cl)c(Cl)c1, which Potency is on record?
Answer: inconclusive: 100 µM [inhibitor, single point]

Question: Which Potency does the source give for N#C/C(=C\c1ccc(-c2ccccc2[N+](=O)[O-])o1)C(N)=O here?
Answer: inconclusive: 50.1 µM [inhibitor, single point]

Question: How did the Potency turn out when COCCCNc1c2c3c(cccc3[nH]c1=O)C(=O)c1ccccc1-2 was run?
Answer: active: 7.08 µM

Question: How did the Potency turn out when CCN(CC)c1ccc2nc3ccccc3[n+](CC)c2c1 was run?
Answer: inconclusive: 50.1 µM [inhibitor, single point]

Question: Which Potency does the source give for COc1ccc(NC(=O)C2CCN(C(=O)C3CC(=O)N(c4ccc(C)cc4)C3)CC2)cc1 (stereo not given) here?
Answer: inconclusive: 7.08 µM [inhibitor, single point]

Question: CCNc1cc(O)ccc1C was tested. Which Potency did it give?
Answer: inconclusive: 31.6 µM [inhibitor, partial curve, poor fit]

Question: For COC(=O)Cn1c(C2CC(=O)N(c3c(C)cccc3C)C2)nc2ccccc21 (stereo not given), which Potency is on record?
Answer: inconclusive: 39.8 µM [quencher, side channel, partial curve, poor fit]

Question: With COc1ccc2cc(CO)c(Cl)nc2c1 as the molecule, how does the Potency read?
Answer: inconclusive: 25.1 µM [inhibitor, partial curve, poor fit]

Question: How did the “FP activity, negative = inhibition” value turn out when COc1cc(NC(=O)Cn2nc(C(F)(F)F)c3c2CCC3)cc(OC)c1OC was run?
Answer: inactive: 5.04%

Question: For CCOC(=O)c1ccc(NC(=O)CN2CCN(CCN=CC3=C(O)CC(C)(C)CC3=O)CC2)cc1, which “FP activity, negative = inhibition” value is on record?
Answer: inactive: -4.72%

Question: For CCn1cc(C(=O)N(C)Cc2ccccc2)c(=O)c2cc(S(=O)(=O)N3CCc4ccccc4C3)ccc21, which Potency is on record?
Answer: inconclusive: 50.1 µM [quencher, side channel, single point]

Question: How did the Potency turn out when CC(C)[C@H](NC(=O)c1ccccc1)C(=O)O was run?
Answer: inconclusive: 2 µM [quencher, side channel, partial curve, poor fit]

Question: Which “FP activity, negative = inhibition” value does the source give for COc1ccc(NC(=O)CSc2nc3ccccc3c(=O)n2-c2ccc3c(c2)OCO3)c(OC)c1 here?
Answer: inactive: -2.12%

Question: Which Potency does the source give for CNCC(O)CN1CCN(c2ccccc2OC)CC1 (stereo not given) here?
Answer: inconclusive: 50.1 µM [inhibitor, single point]

Question: For Cc1ccc(CNc2ccc3c(c2)ncn3C(C)C)cc1, which “FP activity, negative = inhibition” value is on record?
Answer: inactive: 4.82%

Question: For CCOC(=O)C(CC)Sc1ccc2nnc(-c3cccnc3)n2n1 (stereo not given), which Potency is on record?
Answer: inconclusive: 11.2 µM [inhibitor, partial curve, poor fit]

Question: With CCc1ccc(-c2csc3nc[nH]c(=O)c23)cc1 as the molecule, how does the Potency read?
Answer: inconclusive: 11.2 µM [inhibitor, partial curve, poor fit]

Question: How did the “FP activity, negative = inhibition” value turn out when Cc1cc(/C=N/O)c(C)n1-c1ccc(Br)cc1 was run?
Answer: inactive: -1.19%

Question: With O=C(O)C1CC=CCC1C(=O)NCCCCc1ccccc1 (stereo not given) as the molecule, how does the Potency read?
Answer: inconclusive: 39.8 µM [inhibitor, partial curve, poor fit]

Question: With CC(=O)c1c(C)[nH]c(C(=O)N2CCCC(C)C2)c1C (stereo not given) as the molecule, how does the Potency read?
Answer: inconclusive: 50.1 µM [inhibitor, single point]

Question: How did the Potency turn out when CCOc1ccc(NC(=O)CSc2nc(-c3cccs3)cc(C(F)(F)F)c2C#N)cc1 was run?
Answer: inconclusive: 35.5 µM [inhibitor, partial curve, poor fit]

Question: Cc1ccc(NC(=O)C2CC(O)CN2C(=O)OCc2ccccc2)c(C)c1 (stereo not given) was tested. Which Potency did it give?
Answer: inconclusive: 3.98 µM [inhibitor, full curve, poor fit]

Question: With O=C(N/N=C/c1ccc2c(c1)OCO2)c1cc2ccccc2o1 as the molecule, how does the “FP activity, negative = inhibition” value read?
Answer: inactive: 4.4%

Question: How did the Potency turn out when Cc1c(NC(=O)c2cc(-n3cnnc3)ccc2Cl)cccc1-c1nc2ccccc2s1 was run?
Answer: inconclusive: 35.5 µM [inhibitor, partial curve, poor fit]

Question: With Oc1ccc(NCc2cccs2)cc1 as the molecule, how does the Potency read?
Answer: inconclusive: 31.6 µM [inhibitor, single point]

Question: For COc1ccc(CNCCC(c2ccc(F)cc2)c2ccc(OC)cc2)cc1 (stereo not given), which “FP activity, negative = inhibition” value is on record?
Answer: inactive: -4.46%

Question: COc1ccccc1CNC(=O)CCNC(=O)C1CCN(S(=O)(=O)c2ccccc2)CC1 was tested. Which Potency did it give?
Answer: inconclusive: 7.08 µM [inhibitor, single point]

Question: Which Potency does the source give for CCN1CC=C2C(C1)C(c1ccc(Cl)s1)C(C#N)=C(N)C2(C#N)C#N (stereo not given) here?
Answer: inconclusive: 15.8 µM [fluorescent, side channel, partial curve, poor fit]

Question: CC(C)n1c(SCc2ccccc2F)nc2c1c(=O)n(C)c(=O)n2C was tested. Which Potency did it give?
Answer: inconclusive: 56.2 µM [inhibitor, partial curve, poor fit]

Question: How did the Potency turn out when CC(OC(=O)CCN=C1NS(=O)(=O)c2ccccc21)C(=O)NC1CCCCC1C (stereo not given) was run?
Answer: inconclusive: 0.794 µM [inhibitor, full curve, poor fit]

Question: For CN1CCc2c(sc3c2C(=O)NC(c2ccccn2)N3)C1 (stereo not given), which Potency is on record?
Answer: inconclusive: 39.8 µM [fluorescent, side channel, partial curve, poor fit]

Question: CCOC(=O)CSc1nncc2ccc(OC)c(OC)c12 was tested. Which Potency did it give?
Answer: inconclusive: 56.2 µM [inhibitor, partial curve, poor fit]

Question: For Clc1c(CSc2nc3ccccc3o2)nc2sccn12, which “FP activity, negative = inhibition” value is on record?
Answer: inactive: 8.32%
